Measurements as given in US7687083B2, “Pharmaceutical compositions comprising old man's beard (Usnea barbata) and St. John's wort (Hypericum perforatum) and their use” (Universitatsklinikum Freiburg, priority 2004, dated 2010).
For at least one compound, name, drawing or mass did not settle the structure.

Test system: Propionibacterium acnes
Assay: agar dilution test (MIC/MBC)
Format: cell-based
Description: The old man's beard CO2 extract (Usnea barbata L.) was tested in the concentrations 1:10, 1:50, 1:100, 1:500 and 1:1000 in the agar dilution test for a number of aerobic and anaerobic bacteria. The pure substance usnic acid was tested in concentrations of 128/64/32/16/8/4/2/1/0.5/0.25 and 0.125 μg/ml. The MIC (minimum inhibitory concentration) is defined as >90% inhibition of bacterial growth after 24 h. The MBC (minimum bactericidal concentration) is defined as >90% inhibition of the growth at 48 h.

Question: `CC(=O)c1c(O)c(C)c(O)c2c1OC1=CC(=O)C(C(C)=O)C(=O)C12C` (stereo not shown) [Usnic acid, usnic acid] was tested. Which “sensitivity of Propionibacterium acnes” value did it give?
Answer: highly sensitive
